Assay results from article PMC9575670 (Journal of Medicinal Chemistry, 2022).

Key:
Assay type in all cases: cell-based
[1] = test system: pancreatic cancer (ASPC-1) cell line; assay: MTT in vitro antiproliferation assay, ASPC-1; conditions: Homo sapiens, ASPC1, 24 h, read-out: IC50 ± SD ASPC-1
[2] = test system: breast cancer (MCF-7) cell line; assay: MTT in vitro antiproliferation assay, MCF-7; conditions: Homo sapiens, MCF7, 24 h, read-out: IC50 ± SD MCF-7
[3] = test system: lung normal (MRC-5) cell line; assay: MTT in vitro antiproliferation assay, MRC-5; conditions: Homo sapiens, MRC5, 24 h, read-out: IC50 ± SD MRC-5
[4] = test system: lung cancer (A549) cell line; assay: MTT in vitro antiproliferation assay, A549; conditions: Homo sapiens, A549, 24 h, read-out: IC50 ± SD A549

`COc1cc2c(c(OC)c1OC)-c1ccc(OC)c(=O)cc1[C@@H](NC(C)=O)CC2` [CLC, colchicine] was tested, and the IC50 [1] was 10.4 µM, the IC50 [2] was 8.34 µM and the IC50 [3] was 14 µM. It also gave an IC50 [4] of 9.63 µM.
